Test results: patent US20100080800A1
Numbering of substitutions follows the chain as printed. These are yes or no findings as the source states them, for the method shown. Some binding calls cover weakened binding; strength is not graded here.

Chains of the proteins cited; added tags and fusions are not shown. Residues count along the entry.
UniProt P05067, residues 672-713: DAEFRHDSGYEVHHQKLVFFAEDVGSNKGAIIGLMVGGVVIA

Experiments:
[1] = target: Amyloid Beta (antigen of the Amyloid Beta ELISA) (UniProt P05067); experiment: Amyloid Beta ELISA, antibody purified from NS0 cells
[2] = target: Amyloid Beta (antigen of the Amyloid Beta ELISA) (UniProt P05067); experiment: Amyloid Beta ELISA, purified antibody
[3] = target: amyloid plaques in human brain sections (human) (UniProt P05067); experiment: immunohistochemistry, human brain paraffin sections pretreated with formic acid; paraffin sections of AD brain pretreated with formic acid
[4] = target: Amyloid Beta (antigen of the Amyloid Beta ELISA) (UniProt P05067); experiment: Amyloid Beta ELISA, conditioned medium from transient transfection
[5] = target: T1, Aβ16-24 peptide (peptide 16); experiment: ELISA on overlapping peptides of Aβ1-42 (legend of FIG. 15A)
T1 sequence (peptide, biotinylated): KLVFFAEDV

[6] = target: T2, Aβ14-22 peptide (peptide 14); experiment: as above
T2 sequence (peptide, biotinylated): HQKLVFFAE

[7] = target: T3, Aβ15-23 peptide (peptide 15); experiment: as above
T3 sequence (peptide, biotinylated): QKLVFFAED

[8] = target: T4, Aβ12-20 peptide (peptide 12); experiment: as above
T4 sequence (peptide, biotinylated): VHHQKLVFF

[9] = target: T5, Aβ13-21 peptide (peptide 13); experiment: as above
T5 sequence (peptide, biotinylated): HHQKLVFFA

[10] = target: T6, Aβ12-20 peptide with alanine at position 15; experiment: ELISA, alanine-substituted Aβ12-20 peptides, hC2 at 200 ng/ml
T6 sequence (peptide, biotinylated): VHHAKLVFF

[11] = target: T7, Aβ12-20 peptide with alanine at position 18; experiment: as above
T7 sequence (peptide, biotinylated): VHHQKLAFF

[12] = target: T8, Aβ13-21 peptide with glycine at position 21; experiment: ELISA, third peptide library, hC2 at 200 ng/ml
T8 sequence (peptide, biotinylated): HHQKLVFFG

[13] = target: T9, Aβ14-22 peptide with alanine at position 22; experiment: ELISA, third peptide library, hC2 at 200 ng/ml
T9 sequence (peptide, biotinylated): HQKLVFFAA

A12 = target: T10, A12; experiment: ELISA, biotinylated peptide on streptavidin plate, antibody at 200 ng/ml, AP anti-human IgG, 405 nm
T10 sequence (peptide, biotinylated (position not given)): AHHQKLVFF

A13 = target: T11, A13; experiment: as above
T11 sequence (peptide, biotinylated (position not given)): VAHQKLVFF

[14] = target: T8, Aβ13-21 peptide with glycine at position 21; experiment: as above
[15] = target: T1, Aβ16-24 peptide (peptide 16); experiment: as above
[16] = target: T2, Aβ14-22 peptide (peptide 14); experiment: as above
[17] = target: T3, Aβ15-23 peptide (peptide 15); experiment: as above
[18] = target: T4, Aβ12-20 peptide (peptide 12); experiment: as above
[19] = target: T6, Aβ12-20 peptide with alanine at position 15; experiment: as above
A14 = target: T12, A14; experiment: as above
T12 sequence (peptide, biotinylated (position not given)): VHAQKLVFF

[20] = target: T7, Aβ12-20 peptide with alanine at position 18; experiment: as above
[21] = target: T9, Aβ14-22 peptide with alanine at position 22; experiment: as above
[22] = target: T5, Aβ13-21 peptide (peptide 13); experiment: as above
[23] = target: T1, Aβ16-24 peptide (peptide 16); experiment: ELISA, biotinylated peptides on streptavidin plates, hC2 at 200 ng/ml
[24] = target: T2, Aβ14-22 peptide (peptide 14); experiment: as above
[25] = target: T3, Aβ15-23 peptide (peptide 15); experiment: as above
[26] = target: T4, Aβ12-20 peptide (peptide 12); experiment: as above
[27] = target: T5, Aβ13-21 peptide (peptide 13); experiment: as above
[28] = target: Amyloid Beta (antigen of the Amyloid Beta ELISA) (UniProt P05067); experiment: Amyloid Beta ELISA, conditioned medium from transient transfection of HEK293 cells

Measured: binding

B1: C2HuVH4/HuVK2 humanized antibody (antibody, human IgG4 S228P, kappa, V domains shown)
VH: EVQLVESGGGLVQPGGSLRLSCAASGFTFSSYGMSWVRQAPGKGLELVASINSNGGSTYYPDSVKGRFTISRDNAKNSLYLQMNSLRAEDTAVYYCASGDYWGQGTTVTVSS
VL: DIVMTQSPLSLPVTPGEPASISCRSSQSLVYSNGDTYLHWYLQKPGQSPQLLIYKVSNRFSGVPDRFSGSGSGTDFTLKISRVEAEDVGVYFCSQSTHVPWTFGQGTKVEIKR
binds: [1]

B2: C2 ChVH AF/ChVK chimeric antibody (antibody, human IgG4 S228P, kappa, V domains shown)
VH: EVQLVESGGGLVQPGGSLKLSCAASGFTFSSYGMSWVRQTPDKRLELVASINSNGGSTYYPDSVKGRFTISRDNAKNTLYLQMSSLKSEDTAMYYCASGDYWGQGSTLTVSS
VL: B1 VL with I2V, S7T, T14S, P15L, E17D, P18Q, Q50K, V88L, Q105G, V109L
binds: [2] | [3] | [1] | [4]

B3: humanized monoclonal antibody hC2 (antibody, human IgG4 S228P, kappa, V domains shown)
VH: B1 VH
VL: B1 VL with F92Y
not listed: [1] | [2] | [3] | [4] | [28]
binds: all other assays above

B4: C2 HuVH2/HuVK4 humanized antibody (antibody, human IgG4 S228P, kappa, V domains shown)
VH: B1 VH with L47W
VL: B1 VL with Q50K
binds: [1]

B5: C2 HuVH2/HuVK1 humanized antibody (antibody, human IgG4 S228P, kappa, V domains shown)
VH: B1 VH with L47W
VL: B1 VL with F92Y
binds: [1]

B6: VK-R antibody (mC2 VK-R with chimeric C2 VH) (antibody, V domains shown)
VH: B2 VH
VL: DVVMTQTPLSLPVSLGDQASISCRSSQSLVYSNGDTYLHWYLQKPGQSPKLLIYRVSNRFSGVPDRFSGSGSGTDFTLKISRVEAEDLGVYFCSQSTHVPWTFGGGTKLEIK
binds: [28] | [4]

B7: VK-S antibody (mC2 VK-S with chimeric C2 VH) (antibody, V domains shown)
VH: B2 VH
VL: B6 VL with R55K, N58S
binds: [28] | [4]
